Patent publication US10660890B2, “Treatment of polycystic diseases with an HDAC6 inhibitor” (NATIONAL INSTITUTES OF HEALTH (NIH), U.S. DEPT. OF HEALTH …, priority 2013, dated 2020)
At least one structure is not confirmed: it was looked up by name or label, or the drawing left a doubt.

Assays:
PCK rat cholangiocytes = experiment: Proliferation assay, PCK rat cholangiocytes (MTS / cell counting); format: cell-based; details: 20 μM; Cellometer Auto T4 (FIG. 5B)
Text: For in vitro experiments, cholangiocytes were isolated from control rats, PCK rats (an animal model for […], LaRusso N F: Development and characterization of polarized primary cultures of rat intrahepatic bile duct epithelial cells, Lab Invest 1996, 74:303-313), healthy human beings and ADPKD patients (Masyuk et al. Biliary exosomes influence cholangiocyte regulatory mechanisms and proliferation through interaction with primary cilia, Am J Physiol Gastrointest Liver Physiol (2010) 299:G990-999; O'Hara et al. Cholangiocyte N-Ras protein mediates lipopolysaccharide-induced interleukin 6 secretion and proliferation, J Biol Chem (2011) 286:30352-30360; Banales et al. Up-regulation of microRNA 506 leads to decreased Cl(-)/HCO(3) (-) anion exchanger 2 expression in biliary epithelium of patients with primary biliary cirrhosis, Hepatology (2012) 56(2):687-97). Cholangiocytes were cultured in Collagen-I-coated flasks (BD Biocoat). All cell lines were incubated in NRC Media at 37° C., 5% CO2, 100% humidity. […] Cell proliferation was assessed with the CellTiter 96 AQueous One Solution (MTS; Promega) and/or counting cells using the Cellometer Auto T4 Cell Counter (Nexcelom Bioscience).

β-catenin = experiment: Western blot, β-catenin (total, phospho-, acetyl-) in PCK cholangiocytes; format: cell-based, rat; details: 20 μM Tubastatin A; total-β-catenin as loading control
Description: (§1) PCK cholangiocytes were treated with 20 μM Tubastatin A or 2 μM Tubacin, lysed and used for Western blotting. […] Actin was used as a loading control. FIG. 3B depicts representative images of Western blots (n=3) showing HDAC6 inhibitors increase the amount of phospho- and acetyl-β-catenin compared to untreated cells using total-β-catenin as loading control. […] (*p<0.05).
Protein isolated from cultured control rat and PCK rat cholangiocytes were analyzed. Cells were scrapped, resuspended in Phosphate Buffered Saline (PBS) with Protease Inhibitors, Sodium Orthovanadate and Phenylmethanesulfonylfluoride (PMSF), sonicated and equal amounts of sample protein were diluted in Laemmli Sample Buffer (Biorad) and mercaptoethanol. […]
For a better understanding of the mechanisms that are responsible for the inhibition of PCK cholangiocyte proliferation and cyst growth in 3D culture, cultured PCK cholangiocytes were treated with tubastatin-A and tubacin and the amount of acetylated α-tubulin and β-catenin was determined by Western blotting.

cyclin D1 = experiment: Western blot, cyclin D1 in PCK cholangiocytes; format: cell-based, rat; details: 20 μM Tubastatin A
Description: as §1
(§2) Protein isolated from cultured control rat and PCK rat cholangiocytes were analyzed. Cells were scrapped, resuspended in Phosphate Buffered Saline (PBS) with Protease Inhibitors, Sodium Orthovanadate and Phenylmethanesulfonylfluoride (PMSF), sonicated and equal amounts of sample protein were diluted in Laemmli Sample Buffer (Biorad) and mercaptoethanol. After SDS polyacrylamide gel electrophoresis, SDS-PAGE, proteins were transferred to nitrocellulose membranes, blocked, and then incubated with the following primary antibodies: HDAC6 (Santa Cruz Biotechnology, D-11, 1:500), acetylated-α-tubulin (Sigma Aldrich, 1:2000), β-catenin (Cell Signaling Technology, (D10A8) XP® Rabbit mAb; 1:1000), Phospho-β-Catenin (Ser33/37/Thr41) (Cell Signaling Technology, 1:1000), acetyl-β-catenin (Cell Signaling Technology, 1:1000), c-myc (Santa Cruz Biotechnology, 1:500), cyclin D1 (Santa Cruz Biotechnology, 1:500), and actin (Sigma Aldrich, 1:5000). […]

c-myc = experiment: Western blot, c-myc in PCK cholangiocytes; format: cell-based, rat; details: 20 μM Tubastatin A
Description: as §1, §2

histone-3 = experiment: Western blot, histone-3 acetylation in PCK cholangiocytes; format: cell-based, rat; details: 20 μM Tubastatin A
Description: as §1, §2

Question: Which “cystic cholangiocyte proliferation by cell counting” value (PCK rat cholangiocytes) does the source give for `CN1CCc2c(c3ccccc3n2Cc2ccc(C(=O)NO)cc2)C1` [tubastatin A] here?
Answer: significantly reduces

Question: What about the “amount of acetyl-β-catenin compared to untreated cells” value (β-catenin) of the same molecule?
Answer: increase

Question: And the “amount of phospho-β-catenin compared to untreated cells” value (β-catenin)?
Answer: increase

Question: What about the “cyclin D1 level” value (cyclin D1) of the same molecule?
Answer: decreasing

Question: And the c-myc level (c-myc)?
Answer: decreasing

Question: What about the “acetylation levels of histone-3” value (histone-3) of the same molecule?
Answer: remained unaffected
